Results as given in US8187573B2, “In vivo detection of apoptosis” (priority 2005, dated 2012).

Test system: Spleen, Liver, Thymus, and CNS tissues
Experiment: In vivo detection of morphine-mediated apoptosis: apoptosis positive cell counts in tissue sections after IV FAM-VAD-FMK
Conditions: for Counts (apoptosis positive cell counts): 8.3 μg FAM-VAD-FMK IV, 45 minute incubation; for induction of apoptosis by morphine alone: morphine without LPS

Question: Which results are given for `CN1CC[C@]23c4c5ccc(O)c4O[C@H]2[C@@H](O)C=C[C@H]3[C@H]1C5` [Morphine, morphine]?
Answer: Counts (apoptosis positive cell counts) (CNS): 0; Counts (apoptosis positive cell counts) (Liver): 12 ± 3; enhancement of LPS induced apoptosis (Spleen and Thymus (p=0.012 and 0.0018 respectively), morphine with LPS): statistically enhanced LPS induced apoptosis; Counts (apoptosis positive cell counts) (Spleen): 39 ± 12; Counts (apoptosis positive cell counts) (Thymus): 12 ± 6; increase in apoptosis (liver and central nervous system, morphine with LPS): not statistically significant; induction of apoptosis by morphine alone: did not induce apoptosis; induction of apoptosis by morphine alone (listed as morphine): did not significantly induce apoptosis
